This is one part of the list.
Biological target: OsWRKY34 (Oryza sativa, UniProt Q0JBA9 1-250)
Experiment: protein-binding microarray (RPBM); PBS, 2% BSA, 51.3 ng/ul salmon testes DNA, 50 uM zinc acetate, 200 nM TF, 25 C, 1 h; high values mean tight binding
Details: protein: recombinant; tags: N-terminal polyhistidine and DsRed monomer fusion (pET32a); label: CyDye5-dUTP incorporated in the synthesized complementary strand; 3' TTTTT single-stranded linker to array surface; dsDNA, one strand shown
Procedure, shortened: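 Binding signal is reported as fluorescence intensity per feature (arbitrary units) from an Axon 4000B scanner. Incubation used 200 nM of each Ni–NTA-purified, N-terminally polyhistidine- and DsRed-fused transcription factor from E. coli BL21-CodonPlus on a double-stranded custom Agilent array for 1 h at 25 °C, with 50 µM zinc acetate in the buffer, followed by washing.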

Amino acid sequences for entries named in this document (tags omitted).
UniProt Q0JBA9, entry or part of it: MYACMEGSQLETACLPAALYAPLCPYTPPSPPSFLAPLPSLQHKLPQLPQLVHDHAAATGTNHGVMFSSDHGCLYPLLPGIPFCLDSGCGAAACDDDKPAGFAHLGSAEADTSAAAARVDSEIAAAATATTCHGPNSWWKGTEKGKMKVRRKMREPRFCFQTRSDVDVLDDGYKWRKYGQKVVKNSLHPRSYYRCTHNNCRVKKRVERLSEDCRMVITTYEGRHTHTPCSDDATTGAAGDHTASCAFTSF

Sequence | binding signal
GGTTCCAACTTCGTGTTGCATATTCTTAGGCCCGATCTTGCGGAGTCACCTAGTGCAG | 8860 fluorescence intensity (a.u.)
ACAAATTTGTAGCCCGCTGCTCTTCTCTCTCATCTTTTATCGGAGTCACCTAGTGCAG | 9220 fluorescence intensity (a.u.)
ACGCGCCGCAACGCAACTTCCATGGACGCATCTGGACCACCGGAGTCACCTAGTGCAG | 8130 fluorescence intensity (a.u.)
CCTCTGCCATCATCGTCGTCATCCCATCCGGATTGCCACCCGGAGTCACCTAGTGCAG | 9100 fluorescence intensity (a.u.)
GCAATCTGTGTAATTAGTTATTTTTTCGTTTATATTTAATCGGAGTCACCTAGTGCAG | 8490 fluorescence intensity (a.u.)
GCCTCCTCTCGTTCTCGTCAACTGTCTCCGCCTCTCCGGCCGGAGTCACCTAGTGCAG | 9690 fluorescence intensity (a.u.)
GCTTCGCTGATTCTCCATCTTCGCCGGATTAACGCACAAACGGAGTCACCTAGTGCAG | 8950 fluorescence intensity (a.u.)
GGGGTCGTCGTGGCGGAGAAGGCGGCCGCGGCGCGTTCTCCGGAGTCACCTAGTGCAG | 8730 fluorescence intensity (a.u.)
CGCCGCCATGGCCGCCGATCCGTGTCTTCCCTTGCGGCCTCGGAGTCACCTAGTGCAG | 8110 fluorescence intensity (a.u.)
TTCCTTGCTCCACCACAACACCGTCGACTCGAGGCGCACGCGGAGTCACCTAGTGCAG | 9350 fluorescence intensity (a.u.)
GCCAGTGTCACCTAATTATCTGTCGTTTATTTTATATTGTCGGAGTCACCTAGTGCAG | 9890 fluorescence intensity (a.u.)
TGGGAGGGGTAGAATCGTCATTACAAGACAAAGATGTCGGCGGAGTCACCTAGTGCAG | 10700 fluorescence intensity (a.u.)
TTTGGCTTATCTTGTTCTTTTTCCATTTAAATATTAGCCCCGGAGTCACCTAGTGCAG | 8430 fluorescence intensity (a.u.)
GGGGAGGAGCAGTTGCCGCCGTCGCTGGCCTCGGTGAATCCGGAGTCACCTAGTGCAG | 8430 fluorescence intensity (a.u.)
CTTCAGTGTTCTTGACGACCTTGCTGCTTCTTGCCTCTGTCGGAGTCACCTAGTGCAG | 10000 fluorescence intensity (a.u.)
TCCAAACACGCTCTCTTCATCTAGCTCGAGTCCAACAAACCGGAGTCACCTAGTGCAG | 9000 fluorescence intensity (a.u.)
CTCCTCCGCTCCACTCCCACCCGTCGCCGCCACCGCGTGCCGGAGTCACCTAGTGCAG | 8340 fluorescence intensity (a.u.)
CATGATACTATAGCATCCACTTTGTTCATCTTTTTCGTTTCGGAGTCACCTAGTGCAG | 8630 fluorescence intensity (a.u.)
ACATTACGTATGTTCTATTTGTTTTTTGGTTGGGGTGTGTCGGAGTCACCTAGTGCAG | 9250 fluorescence intensity (a.u.)
CCCAACACGACCCATCCCATCACTCTGTCCAACCGGGCCTCGGAGTCACCTAGTGCAG | 9700 fluorescence intensity (a.u.)
GCCGATCTCCTCTGCACCGCCGCCCACGATTCGCCGCCGTCGGAGTCACCTAGTGCAG | 8940 fluorescence intensity (a.u.)

Sequence | binding signal
GCCTCACCTCCGGCCACCGACCACCGCCGCCTCCGCGTCCCGGAGTCACCTAGTGCAG | 9680 fluorescence intensity (a.u.)
CTTAGCTACCTGTTCTGCTTGTCAAGTTGTCATGTTGTATCGGAGTCACCTAGTGCAG | 12000 fluorescence intensity (a.u.)
GGAGTTTACCAGCCTAGCGTCTATGTTGCTCATTTTTGTTCGGAGTCACCTAGTGCAG | 8030 fluorescence intensity (a.u.)
TCTGCGGACTGCGGCTCTGCCCATACACGCTTATCAATGCCGGAGTCACCTAGTGCAG | 8730 fluorescence intensity (a.u.)
GCCGCCTCATCCCGCACCGCTACGCCGGCCACGCCGCCTCCGGAGTCACCTAGTGCAG | 10200 fluorescence intensity (a.u.)
ATACTTGATTAACCATACGTTTAACTCGTCGTTTCCTTTTCGGAGTCACCTAGTGCAG | 9510 fluorescence intensity (a.u.)
TTTTTTTTTTTTGCGGGGCTTGACATCTGTTGTTTGACCTCGGAGTCACCTAGTGCAG | 9300 fluorescence intensity (a.u.)
TCCACGTCACTTGGCCCCACCTGTCACCCACCCATCCGAACGGAGTCACCTAGTGCAG | 8410 fluorescence intensity (a.u.)
CATGCTTTTCTTTCTGTACTTCCTGCCTAAACTTTGCCTACGGAGTCACCTAGTGCAG | 9710 fluorescence intensity (a.u.)
CCCATCGCCCACCCCGCTCGTCGCTTGCTCTGGCCTTCTCCGGAGTCACCTAGTGCAG | 8080 fluorescence intensity (a.u.)
GTAACTGAGTCATCTCTAATTTCTAACTCCCATGGAATTACGGAGTCACCTAGTGCAG | 8760 fluorescence intensity (a.u.)
TTGATACCGTTGATTTTTTACACATGTTTAACCGTTCGTCCGGAGTCACCTAGTGCAG | 8120 fluorescence intensity (a.u.)
CTGCTTCATTTGTCTCCACTTTTTGGTTTTTACAATTATTCGGAGTCACCTAGTGCAG | 14300 fluorescence intensity (a.u.)
GCCGCCATCCCACAGCTTTCCTAGGGTTAATCCTCCCGCGCGGAGTCACCTAGTGCAG | 10600 fluorescence intensity (a.u.)
ACACCTTCACACCATCATCTCTTTGCTTGATTCACCTGGACGGAGTCACCTAGTGCAG | 12400 fluorescence intensity (a.u.)
TGTGTGTCGGTGTATCAAATTACATTTTAAAAATTAATATCGGAGTCACCTAGTGCAG | 9090 fluorescence intensity (a.u.)
AGCGGGGCAGAGCGCGGGGCGGGAGATGGCGACAAGTTCGCGGAGTCACCTAGTGCAG | 8620 fluorescence intensity (a.u.)
AGCTCTGAATTCCTCTGTTTCGTCTGTTCTCGTCTTCAGCCGGAGTCACCTAGTGCAG | 16200 fluorescence intensity (a.u.)
ATTATTTTCTTGTTTTAGTTCAATTCAATTCTTCCATGAACGGAGTCACCTAGTGCAG | 8840 fluorescence intensity (a.u.)
GTCCCTAAGATAATATGTTTTGAATCTAACGTTTGGCTACCGGAGTCACCTAGTGCAG | 8270 fluorescence intensity (a.u.)
TATATTCCGCGCTCTACCTTGTTTTTCTAGGGCTCAAACCCGGAGTCACCTAGTGCAG | 8790 fluorescence intensity (a.u.)

Fetched one by one from the entries so far:
Sequence | binding signal
TCTGCGGACTGCGGCTCTGCCCATACACGCTTATCAATGCCGGAGTCACCTAGTGCAG | 8730 fluorescence intensity (a.u.)
CATGCTTTTCTTTCTGTACTTCCTGCCTAAACTTTGCCTACGGAGTCACCTAGTGCAG | 9710 fluorescence intensity (a.u.)
ATACTTGATTAACCATACGTTTAACTCGTCGTTTCCTTTTCGGAGTCACCTAGTGCAG | 9510 fluorescence intensity (a.u.)

From PMC7819943, “Rice protein-binding microarrays: a tool to detect cis-acting elements near promoter regions in rice”
